# Measured values taken from PubChem BioAssay AID1671190 (National Center for Advancing Translational Sciences (NCATS), 2021).
# Protein sequences, listed by entry. Tags and fused reporters are not part of them.
# UniProt P18054, whole entry, looked up: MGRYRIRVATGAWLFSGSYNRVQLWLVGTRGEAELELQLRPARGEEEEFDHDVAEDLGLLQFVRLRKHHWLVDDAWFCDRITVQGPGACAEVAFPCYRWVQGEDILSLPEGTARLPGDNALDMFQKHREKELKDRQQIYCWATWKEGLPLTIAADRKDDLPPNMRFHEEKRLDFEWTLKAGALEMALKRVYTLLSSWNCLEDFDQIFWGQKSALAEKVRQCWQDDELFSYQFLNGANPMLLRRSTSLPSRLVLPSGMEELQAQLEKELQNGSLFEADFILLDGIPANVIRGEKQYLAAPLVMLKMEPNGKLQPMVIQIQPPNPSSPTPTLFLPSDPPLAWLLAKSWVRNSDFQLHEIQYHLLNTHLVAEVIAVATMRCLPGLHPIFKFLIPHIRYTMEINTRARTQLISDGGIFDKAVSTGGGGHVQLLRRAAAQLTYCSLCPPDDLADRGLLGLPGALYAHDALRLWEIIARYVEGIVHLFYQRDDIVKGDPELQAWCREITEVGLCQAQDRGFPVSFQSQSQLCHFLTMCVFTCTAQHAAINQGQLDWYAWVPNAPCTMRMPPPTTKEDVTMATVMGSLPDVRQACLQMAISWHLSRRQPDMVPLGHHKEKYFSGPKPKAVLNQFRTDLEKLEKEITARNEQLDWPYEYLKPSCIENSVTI
# Values joined by “and” are separate entries in the source; they are usually repeats but may differ in a detail not shown here. Equal values may be shown once. Out of some 580,000 compounds screened, about 6,100 (1.1%) were called active. This list was built around the results that the source calls inconclusive (neither active nor inactive); the mix of calls is not that of the screen. Calls follow the shape of the dose curve; as a rule, active = well fitted inhibition curve with a large enough effect; inconclusive = small, poorly fitted or top-dose-only effect, or another doubt; inactive = no such curve, though single readings can be large or run the other way. Potencies beside an inconclusive call are fits to weak or partial responses and may not hold up.
# Target: Polyunsaturated fatty acid lipoxygenase ALOX12 (Homo sapiens) (UniProt P18054)
# Assay: Primary qHTS assay for inhibitors of human arachidonate 12S-lipoxygenase (ALOX12): Round 2
# Conditions: purified 12hLO, xylenol orange hydroperoxide absorbance; activity change, negative = inhibition: at 108 µM (top of the series) unless noted
# Method in brief: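 Purified human 12hLO (150 nM final) in 25 mM Hepes, 0.01% Triton X-100, pH 7.0 was preincubated 15 min at room temperature with compound. Then 40 uM arachidonic acid was added, 30 min. Hydroperoxide was read by Fe-XO absorbance ratio 573/405 nm.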
# % is scaled to controls: 0 for no effect and ±100 for the full control effect; potency is read from the fitted curve at half-maximal effect.
SMILES,Potency,"activity change, negative = inhibition"
CC(=O)N1CCC(C(=O)Nc2cc(S(=O)(=O)N3CCCCC3)ccc2C)CC1,"inconclusive: 44.7 µM [inhibitor, partial curve, poor fit]",–
COc1ccc(CNC(=O)c2noc(-c3ccc(C)cc3)n2)c(OC)c1,"inconclusive: 28.2 µM [inhibitor, full curve, poor fit]",–
Cc1ccccc1C(=O)N1CCCC(c2nc3ccccc3[nH]2)C1 (stereo not given),"inconclusive: 0.708 µM [inhibitor, full curve, poor fit]",–
COc1ccc(-n2c(=O)c(-c3cccs3)nc3cnc(Nc4ccccc4)nc32)cc1,"inconclusive: 35.5 µM [inhibitor, single point]",–
CNc1ccc(Cl)nn1,–,inactive: 1.77%
CC(NC(=O)c1cccc2c1CCN2C(=O)Nc1ccc(F)cc1)c1ccccn1 (stereo not given),–,inactive: 68.2%
COCc1cc(=O)[nH]c(SCCS(=O)(=O)c2ccc(C)cc2)n1,–,inactive: 0%
Cc1cc(C)c(CSc2ncnc3nc[nH]c23)c(C)c1,"inconclusive: 100 µM [inhibitor, partial curve, poor fit]",–
Nc1cc(S(=O)(=O)Nc2ccc(Cl)cc2)ccc1N1CCOCC1,active: 44.7 µM,–
Cc1cc(N2CCOCC2)nc(Nc2ccc(NC(=O)c3ccccc3)cc2)n1,"inconclusive: 112 µM [inhibitor, single point]",–
COc1nc(OC)nc(Oc2ccc(Cl)cc2[N+](=O)[O-])n1,–,inactive: 17.8%
CCCn1c(C)ccc(-c2noc(CCC(=O)Nc3ccc(OCC)cc3)n2)c1=O,–,inactive: -19.4%
O=C(/C=C/c1ccc(N2CCCCC2)c([N+](=O)[O-])c1)c1ccc(O)cc1,–,inactive: -1.02%
O=C(Nc1ccc(F)c(Cl)c1)c1ccc(Cl)cc1N1CCCC1=O,"inconclusive: 17.8 µM [inhibitor, full curve]",–
COc1ccc2nc(-c3ccccc3)cc(C(=O)OCC(=O)NC3CC3)c2c1,–,inactive: -1.03%
CC(C)OC(=O)c1ccc(NCc2cc(O)ccc2O)cc1Cl,active: 10 µM,–
CCNc1ncc2nc(-c3ccccc3)c(=O)n(Cc3cccs3)c2n1,"inconclusive: 100 µM [inhibitor, single point]",–
Cc1ccc(C2=NOC(C)(c3sc(-c4ccc(Cl)cc4)nc3C)C2)cc1 (stereo not given),"inconclusive: 12.6 µM [inhibitor, full curve]",–
NCc1cccc(NC(=O)c2ccncc2)c1,–,inactive: 15.1%
O=C(CCc1cc(=O)[nH]o1)N[C@@H]1CCOC[C@H]1O,–,inactive: -3.89%
O=c1[nH]c(CSc2nnnn2-c2ccccc2)nc2ccsc12,"inconclusive: 39.8 µM [inhibitor, partial curve, poor fit]",–
O=[N+]([O-])c1cccc(S(=O)(=O)Nc2ccc(S(=O)(=O)Nc3nccs3)cc2)c1,–,inactive: -4.3%
CCc1nc(N2CCC(C)CC2)c2oc3ccccc3c2n1,active: 11.2 µM,–
COc1ccccc1NS(=O)(=O)c1cc(N)ccc1N1CCCCC1,"inconclusive: 50.1 µM [inhibitor, partial curve, poor fit]",–

SMILES,Potency,"activity change, negative = inhibition"
CCC(=O)Nc1ccc(CC)cc1-c1nc2ccccc2n(CC(=O)Nc2ccccc2C)c1=O,"inconclusive: 141 µM [inhibitor, partial curve, poor fit]",–
COc1ccc(/C=N/NC(=O)CN2CCSCC2)cc1C,"inconclusive: 2.51 µM [inhibitor, full curve, poor fit]",–
S=c1[nH]nc(COc2ccc(Cl)cc2)n1-c1ccccc1,"inconclusive: 39.8 µM [inhibitor, partial curve, poor fit]",–
COc1ccc(/C=C(\C#N)C(=O)Nc2cccc(C(F)(F)F)c2)c(OC)c1,–,inactive: 30.3%
COc1ccc(-c2cc(C(F)(F)F)nc(SCC(=O)NCc3cccs3)n2)cc1OC,–,inactive: -10.3%
O=C(CSc1nc2ccccc2nc1Cc1ccccc1F)Nc1cccc(C(F)(F)F)c1,–,inactive: -21.7%
COC(=O)C1=C(N)N(c2ccc(Br)cc2)C2=C(C(=O)CCC2)C1c1ccc(OC)cc1 (stereo not given),"inconclusive: 39.8 µM [inhibitor, partial curve, poor fit]",–
O=C(C1=C(O)C(=O)N(Cc2ccco2)C1c1cccc([N+](=O)[O-])c1)c1ccco1 (stereo not given),"inconclusive: 79.4 µM [inhibitor, single point]",–
NC(Cc1c[nH]c2ccccc12)C(=O)NCc1ccccc1 (stereo not given),–,inactive: 14.6%
Oc1ccc(-n2nnnc2SCc2c(F)cccc2Cl)cc1,"inconclusive: 2.82 µM [inhibitor, full curve, poor fit]",–
COC(=O)C1=C(C)NC(=O)NC1c1cn(-c2ccccc2)nc1-c1cccs1 (stereo not given),–,inactive: 29.7%
COc1cccc(/C=N/n2c(-c3cc(C)[nH]n3)n[nH]c2=S)c1,"inconclusive: 50.1 µM [inhibitor, partial curve, poor fit]",–
CCN(CCCNC(=O)CCn1c(=O)[nH]c2ccccc2c1=O)c1cccc(C)c1,"inconclusive: 126 µM [inhibitor, partial curve, poor fit]",–
CC(C)c1ccc(OCC(=O)N(Cc2ccccc2)c2ccccn2)cc1,–,inactive: -14.3%
CN1CCN(c2cc(=O)c3ccnc(-c4ccc([S+](C)(=O)[O-])cc4)c3o2)CC1,"inconclusive: 11.2 µM [inhibitor, full curve]",–
CCOc1ccc(-c2cc(C(=O)NCCCOC)c3c(-c4ccc(CC)cc4)[nH]nc3n2)cc1,"inconclusive: 89.1 µM [inhibitor, single point]",–
CCOc1ccccc1C(=O)N1CC(=O)Nc2ccc(C)cc2C1c1ccccc1 (stereo not given),"inconclusive: 112 µM [inhibitor, partial curve, poor fit]",–
COc1ccc(-c2nc(COc3ccc(F)c(Cl)c3)co2)cc1,"inconclusive: 44.7 µM [inhibitor, partial curve, poor fit]",–
Cc1ccc(CN2c3ccccc3-c3nc(SCC(=O)Nc4c(C)cc(C)cc4C)ncc3S2(=O)=O)cc1,"inconclusive: 44.7 µM [inhibitor, partial curve, poor fit]",–
O=C(Cc1ccc(Cl)cc1)NCc1nnc2ccc(-c3ccc(F)cc3)nn12,–,inactive: -6.29%
Cc1cccc(C(=O)N2CCC(c3nc4cc(C(F)(F)F)ccc4s3)CC2)n1,"inconclusive: 28.2 µM [inhibitor, partial curve, poor fit]",–
COCc1c(C(=O)NCCc2ccc(OC(F)F)cc2)oc2ccccc12,–,inactive: 3.07%
CC1(C)CC(=O)C(Sc2ccccc2[N+](=O)[O-])=C(O)C1,–,inactive: -11.9%
Cc1ccc(Cl)c2c1=NC(=O)C=2c1[nH]c(=S)[nH]c1O,"inconclusive: 7.08 µM [inhibitor, full curve]",–

# 3 neighbouring records already listed, for reference:
SMILES,Potency,"activity change, negative = inhibition"
Oc1ccc(-n2nnnc2SCc2c(F)cccc2Cl)cc1,"inconclusive: 2.82 µM [inhibitor, full curve, poor fit]",–
COC(=O)C1=C(C)NC(=O)NC1c1cn(-c2ccccc2)nc1-c1cccs1 (stereo not given),–,inactive: 29.7%
COc1cccc(/C=N/n2c(-c3cc(C)[nH]n3)n[nH]c2=S)c1,"inconclusive: 50.1 µM [inhibitor, partial curve, poor fit]",–

# Given tab-delimited: part of the list above.
SMILES	Potency	activity change, negative = inhibition
S=c1[nH]nc(COc2ccc(Cl)cc2)n1-c1ccccc1	inconclusive: 39.8 µM [inhibitor, partial curve, poor fit]	–
COc1ccc(/C=C(\C#N)C(=O)Nc2cccc(C(F)(F)F)c2)c(OC)c1	–	inactive: 30.3%

# Next part

SMILES,Potency,"activity change, negative = inhibition"
O=C(COc1ccc2ccc(=O)oc2c1)Nc1cccc2ccccc12,"inconclusive: 44.7 µM [inhibitor, partial curve, poor fit]",–
Cc1ccccc1NC1=NC(=S)N(c2ccccc2)C12CCCCC2,–,inactive: -5.3%
COc1ccc(C(=O)N2CCN(C)C(=O)[C@@H]2C)cc1OC1CCN(C(C)=O)CC1,–,inactive: 3.67%
Cc1nn2c(=O)cc(COc3ccc(/C=C(\C#N)C(=O)Nc4ccccc4)cc3Cl)nc2s1,"inconclusive: 112 µM [inhibitor, partial curve, poor fit]",–
CNC1CCC(N(Cc2cccc(-c3ccncc3)c2)C(=O)c2sc3c(F)ccc(F)c3c2Cl)CC1 (stereo not given),"inconclusive: 0.863 µM [inhibitor, full curve, poor fit]",–
O=C(CNc1ccccc1)N/N=C/c1c(O)ccc2ccccc12,"inconclusive: 44.7 µM [inhibitor, partial curve, poor fit]",–
CCN1C(=O)[C@H]2[C@H]3CN=C(SCC4CC4)N3[C@@](Cc3ccccc3)(C(=O)OC)[C@H]2C1=O,"inconclusive: 89.1 µM [inhibitor, partial curve, poor fit]",–
COC(=O)C1=C(C)NC(=O)CC1C(=O)Nc1cc(Cl)ccc1C (stereo not given),"inconclusive: 56.2 µM [inhibitor, partial curve, poor fit]",–
Cc1sc2nc(CN3CCOCC3)nc(NCCc3ccccc3)c2c1C,–,inactive: -10.6%
COc1ccc(-c2ccc(CCC(=O)O)n2-c2ccc(O)cc2)cc1,"inconclusive: 44.7 µM [inhibitor, partial curve, poor fit]",–
CCOc1ccccc1C1NC(=O)N(CC(=O)Nc2cccc(C(C)C)c2)C2=C1C(=O)OC2 (stereo not given),–,inactive: 6.59%
COC(=O)c1ccc(-c2noc(CN(Cc3nccn3C)C(C)C)n2)cc1,–,inactive: 32.7%
COCCn1c(C)cc(C(=O)CSc2nc3nc(C)cc(C)n3n2)c1C,"inactive and inconclusive: 79.4 µM [inhibitor, partial curve, poor fit]",–
O=[S+]([O-])(Nc1nncs1)c1ccc2c(c1)OCCN(Cc1nccs1)C2,–,inactive: 3.07% [at 176 µM]
CCCCCCCCNS(=O)(=O)CCNCCc1ccccc1,–,inactive: -79.3%
COc1nc2cc(C)ccc2cc1-c1noc(-c2cccs2)n1,–,inactive: -0.14%
O=C(Nc1ccc(NC(=O)C2CCCN2C(=O)OCc2ccccc2)cc1)c1ccco1 (stereo not given),–,inactive: 0%
COc1ccc(N2C(=O)C(C)(C)C2c2c(O)ccc3ccccc23)cc1 (stereo not given),"inconclusive: 79.4 µM [inhibitor, partial curve, poor fit]",–
CCc1ccc(/C=C2\Oc3cc(OS(=O)(=O)c4ccc(OC)cc4)ccc3C2=O)cc1,"inconclusive: 63.1 µM [inhibitor, partial curve, poor fit]",–
Cc1cc(F)ccc1S(=O)(=O)NC(CN(C)C)c1ccccc1 (stereo not given),–,inactive: -4.08%
CCOC(=O)c1c(C)[nH]c(C(=O)COc2cc(Cl)ccc2Cl)c1C,"inconclusive: 70.8 µM [inhibitor, partial curve, poor fit]",–
COc1ccc(OC)c([N+](=O)[O-])c1C(N)=O,–,inactive: 361%
